The test system of the series is mitochondrial proteins of HEK293 T-REx cells. Put plainly: Mitochondrial proteome profiling for WT and CLPP^−/− (fold change CLPP^−/−/WT). As to conditions: fold change of mitochondrial protein detected in CLPP knockout compared to WT HEK293 T-REx cells; MaxQuant total peptide ion intensity. Details: species or system human.

B1: ALDH4A1 (protein, UniProt P30038 25-563, looked up)
Delta-1-pyrroline-5-carboxylat …: KHTSSLKVANEPVLAFTQGSPERDALQKALKDLKGRMEAIPCVVGDEEVWTSDVQYQVSPFNHGHKVAKFCYADKSLLNKAIEAALAARKEWDLKPIADRAQIFLKAADMLSGPRRAEILAKTMVGQGKTVIQAEIDAAAELIDFFRFNAKYAVELEGQQPISVPPSTNSTVYRGLEGFVAAISPFNFTAIGGNLAGAPALMGNVVLWKPSDTAMLASYAVYRILREAGLPPNIIQFVPADGPLFGDTVTSSEHLCGINFTGSVPTFKHLWKQVAQNLDRFHTFPRLAGECGGKNFHFVHRSADVESVVSGTLRSAFEYGGQKCSACSRLYVPHSLWPQIKGRLLEEHSRIKVGDPAEDFGTFFSAVIDAKSFARIKKWLEHARSSPSLTILAGGKCDDSVGYFVEPCIVESKDPQEPIMKEEIFGPVLSVYVYPDDKYKETLQLVDSTTSYGLTGAVFSQDKDVVQEATKVLRNAAGNFYINDKSTGSIVGQQPFGGARASGTNDKPGGPHYILRWTSPQVIKETHKPLGDWSYAYMQ
For B1, the “Avg. fold change (CLPP KO/WT)” value is −1.41.

B2: ATP5O (protein, UniProt P48047 24-213, looked up)
ATP synthase peripheral stalk …: FAKLVRPPVQVYGIEGRYATALYSAASKQNKLEQVEKELLRVAQILKEPKVAASVLNPYVKRSIKVKSLNDITAKERFSPLTTNLINLLAENGRLSNTQGVVSAFSTMMSVHRGEVPCTVTSASPLEEATLSELKTVLKSFLSQGQVLKLEAKTDPSILGGMIVRIGEKYVDMSVKTKIQKLGRAMREIV
As for B2, the “Avg. fold change (CLPP KO/WT)” value is reported as −1.12.

B3: AKAP1 (protein, UniProt Q92667 30-903, looked up)
A-kinase anchor protein 1, …: KGHVSSHDEQQVEAGAVQLRADPAIKEPLPVEDVCPKVVSTPPSVTEPPEKELSTVSKLPAEPPALLQTHPPCRRSESSGILPNTTDMRLRPGTRRDDSTKLELALTGGEAKSIPLECPLSSPKGVLFSSKSAEVCKQDSPFSRVPRKVQPGYPVVPAEKRSSGERARETGGAEGTGDAVLGEKVLEEALLSREHVLELENSKGPSLASLEGEEDKGKSSSSQVVGPVQEEEYVAEKLPSRFIESAHTELAKDDAAPAPPVADAKAQDRGVEGELGNEESLDRNEEGLDRNEEGLDRNEESLDRNEEGLDRNEEIKRAAFQIISQVISEATEQVLATTVGKVAGRVCQASQLQGQKEESCVPVHQKTVLGPDTAEPATAEAAVAPPDAGLPLPGLPAEGSPPPKTYVSCLKSLLSSPTKDSKPNISAHHISLASCLALTTPSEELPDRAGILVEDATCVTCMSDSSQSVPLVASPGHCSDSFSTSGLEDSCTETSSSPRDKAITPPLPESTVPFSNGVLKGELSDLGAEDGWTMDAEADHSGGSDRNSMDSVDSCCSLKKTESFQNAQAGSNPKKVDLIIWEIEVPKHLVGRLIGKQGRYVSFLKQTSGAKIYISTLPYTQSVQICHIEGSQHHVDKALNLIGKKFKELNLTNIYAPPLPSLALPSLPMTSWLMLPDGITVEVIVVNQVNAGHLFVQQHTHPTFHALRSLDQQMYLCYSQPGIPTLPTPVEITVICAAPGADGAWWRAQVVASYEETNEVEIRYVDYGGYKRVKVDVLRQIRSDFVTLPFQGAEVLLDSVMPLSDDDQFSPEADAAMSEMTGNTALLAQVTSYSPTGLPLIQLWSVVGDEVVLINRSLVERGLAQWVDSYYTSL
As to B3, the “Avg. fold change (CLPP KO/WT)” value is listed as −1.27.

B4: C1QBP (protein, UniProt Q07021 74-282, looked up)
Complement component 1 Q …: LHTDGDKAFVDFLSDEIKEERKIQKHKTLPKMSGGWELELNGTEAKLVRKVAGEKITVTFNINNSIPPTFDGEEEPSQGQKVEEQEPELTSTPNFVVEVIKNDDGKKALVLDCHYPEDEVGQEDEAESDIFSIREVSFQSTGESEWKDTNYTLNTDSLDWALYDHLMDFLADRGVDNTFADELVELSTALEHQEYITFLEDLKSFVKSQ
Turning to B4, the “Avg. fold change (CLPP KO/WT)” value worked out at 1.19.

B5: CCDC58 (protein, UniProt Q4VC31 2-144, looked up)
Protein MIX23: AAPSGGVNCEEFAEFQELLKVMRTIDDRIVHELNTTVPTASFAGKIDASQTCKQLYESLMAAHASRDRVIKNCIAQTSAVVKNLREEREKNLDDLTLLKQLRKEQTKLKWMQSELNVEEVVNDRSWKVFNERCRIHFKPPKNE
B5: the “Avg. fold change (CLPP KO/WT)” value is 1.07.

B6: ATAD3A (protein, UniProt Q9NVI7 2-586, looked up)
ATPase family AAA …: SWLFGINKGPKGEGAGPPPPLPPAQPGAEGGGDRGLGDRPAPKDKWSNFDPTGLERAAKAARELEHSRYAKDALNLAQMQEQTLQLEQQSKLKEYEAAVEQLKSEQIRAQAEERRKTLSEETRQHQARAQYQDKLARQRYEDQLKQQQLLNEENLRKQEESVQKQEAMRRATVEREMELRHKNEMLRVEAEARARAKAERENADIIREQIRLKAAEHRQTVLESIRTAGTLFGEGFRAFVTDWDKVTATVAGLTLLAVGVYSAKNATLVAGRFIEARLGKPSLVRETSRITVLEALRHPIQVSRRLLSRPQDALEGVVLSPSLEARVRDIAIATRNTKKNRSLYRNILMYGPPGTGKTLFAKKLALHSGMDYAIMTGGDVAPMGREGVTAMHKLFDWANTSRRGLLLFVDEADAFLRKRATEKISEDLRATLNAFLYRTGQHSNKFMLVLASNQPEQFDWAINDRINEMVHFDLPGQEERERLVRMYFDKYVLKPATEGKQRLKLAQFDYGRKCSEVARLTEGMSGREIAQLAVSWQATAYASEDGVLTEAMMDTRVQDAVQQHQQKMCWLKAEGPGRGDEPSPS
Regarding B6, the “Avg. fold change (CLPP KO/WT)” value is 1.13.

B7: ACO2 (protein, UniProt Q99798 28-780, looked up)
Aconitate hydratase, …: QRAKVAMSHFEPNEYIHYDLLEKNINIVRKRLNRPLTLSEKIVYGHLDDPASQEIERGKSYLRLRPDRVAMQDATAQMAMLQFISSGLSKVAVPSTIHCDHLIEAQVGGEKDLRRAKDINQEVYNFLATAGAKYGVGFWKPGSGIIHQIILENYAYPGVLLIGTDSHTPNGGGLGGICIGVGGADAVDVMAGIPWELKCPKVIGVKLTGSLSGWSSPKDVILKVAGILTVKGGTGAIVEYHGPGVDSISCTGMATICNMGAEIGATTSVFPYNHRMKKYLSKTGREDIANLADEFKDHLVPDPGCHYDQLIEINLSELKPHINGPFTPDLAHPVAEVGKVAEKEGWPLDIRVGLIGSCTNSSYEDMGRSAAVAKQALAHGLKCKSQFTITPGSEQIRATIERDGYAQILRDLGGIVLANACGPCIGQWDRKDIKKGEKNTIVTSYNRNFTGRNDANPETHAFVTSPEIVTALAIAGTLKFNPETDYLTGTDGKKFRLEAPDADELPKGEFDPGQDTYQHPPKDSSGQHVDVSPTSQRLQLLEPFDKWDGKDLEDLQILIKVKGKCTTDHISAAGPWLKFRGHLDNISNNLLIGAINIENGKANSVRNAVTQEFGPVPDTARYYKKHGIRWVVIGDENYGEGSSREHAALEPRHLGGRAIITKSFARIHETNLKKQGLLPLTFADPADYNKIHPVDKLTIQGLKDFTPGKPLKCIIKHPNGTQETILLNHTFNETQIEWFRAGSALNRMKELQQ
Take B7: the “Avg. fold change (CLPP KO/WT)” value is on record as −1.05.

B8: ALDH18A1 (protein, UniProt P54886 1-795, looked up)
Delta-1-pyrroline-5-carboxylat …: MLSQVYRCGFQPFNQHLLPWVKCTTVFRSHCIQPSVIRHVRSWSNIPFITVPLSRTHGKSFAHRSELKHAKRIVVKLGSAVVTRGDECGLALGRLASIVEQVSVLQNQGREMMLVTSGAVAFGKQRLRHEILLSQSVRQALHSGQNQLKEMAIPVLEARACAAAGQSGLMALYEAMFTQYSICAAQILVTNLDFHDEQKRRNLNGTLHELLRMNIVPIVNTNDAVVPPAEPNSDLQGVNVISVKDNDSLAARLAVEMKTDLLIVLSDVEGLFDSPPGSDDAKLIDIFYPGDQQSVTFGTKSRVGMGGMEAKVKAALWALQGGTSVVIANGTHPKVSGHVITDIVEGKKVGTFFSEVKPAGPTVEQQGEMARSGGRMLATLEPEQRAEIIHHLADLLTDQRDEILLANKKDLEEAEGRLAAPLLKRLSLSTSKLNSLAIGLRQIAASSQDSVGRVLRRTRIAKNLELEQVTVPIGVLLVIFESRPDCLPQVAALAIASGNGLLLKGGKEAAHSNRILHLLTQEALSIHGVKEAVQLVNTREEVEDLCRLDKMIDLIIPRGSSQLVRDIQKAAKGIPVMGHSEGICHMYVDSEASVDKVTRLVRDSKCEYPAACNALETLLIHRDLLRTPLFDQIIDMLRVEQVKIHAGPKFASYLTFSPSEVKSLRTEYGDLELCIEVVDNVQDAIDHIHKYGSSHTDVIVTEDENTAEFFLQHVDSACVFWNASTRFSDGYRFGLGAEVGISTSRIHARGPVGLEGLLTTKWLLRGKDHVVSDFSEHGSLKYLHENLPIPQRNTN
For B8, the “Avg. fold change (CLPP KO/WT)” value was −1.03.

B9: CECR5 (protein, UniProt Q9BXW7 24-423, looked up)
Haloacid dehalogenase-like …: AAGLQGRPARRCYAVGPAQSPPTFGFLLDIDGVLVRGHRVIPAALKAFRRLVNSQGQLRVPVVFVTNAGNILQHSKAQELSALLGCEVDADQVILSHSPMKLFSEYHEKRMLVSGQGPVMENAQGLGFRNVVTVDELRMAFPLLDMVDLERRLKTTPLPRNDFPRIEGVLLLGEPVRWETSLQLIMDVLLSNGSPGAGLATPPYPHLPVLASNMDLLWMAEAKMPRFGHGTFLLCLETIYQKVTGKELRYEGLMGKPSILTYQYAEDLIRRQAERRGWAAPIRKLYAVGDNPMSDVYGANLFHQYLQKATHDGAPELGAGGTRQQQPSASQSCISILVCTGVYNPRNPQSTEPVLGGGEPPFHGHRDLCFSPGLMEASHVVNDVNEAVQLVFRKEGWALE
Take B9: the “Avg. fold change (CLPP KO/WT)” value was −1.06.

B10: ATP5F1 (protein, UniProt P24539 43-256, looked up)
ATP synthase peripheral stalk …: PVPPLPEYGGKVRYGLIPEEFFQFLYPKTGVTGPYVLGTGLILYALSKEIYVISAETFTALSVLGVMVYGIKKYGPFVADFADKLNEQKLAQLEEAKQASIQHIQNAIDTEKSQQALVQKRHYLFDVQRNNIAMALEVTYRERLYRVYKEVKNRLDYHISVQNMMRRKEQEHMINWVEKHVVQSISTQQEKETIAKCIADLKLLAKKAQAQPVM
As to B10, the “Avg. fold change (CLPP KO/WT)” value worked out at 1.40.

B11: ATP5J (protein, UniProt P18859 33-108, looked up)
ATP synthase peripheral stalk …: NKELDPIQKLFVDKIREYKSKRQTSGGPVDASSEYQQELERELFKLKQMFGNADMNTFPTFKFEDPKFEVIEKPQA
Turning to B11, the “Avg. fold change (CLPP KO/WT)” value is recorded as 1.00.

B12: ALDH7A1 (protein, UniProt P49419 27-539, looked up)
Alpha-aminoadipic …: AFMSTLLINQPQYAWLKELGLREENEGVYNGSWGGRGEVITTYCPANNEPIARVRQASVADYEETVKKAREAWKIWADIPAPKRGEIVRQIGDALREKIQVLGSLVSLEMGKILVEGVGEVQEYVDICDYAVGLSRMIGGPILPSERSGHALIEQWNPVGLVGIITAFNFPVAVYGWNNAIAMICGNVCLWKGAPTTSLISVAVTKIIAKVLEDNKLPGAICSLTCGGADIGTAMAKDERVNLLSFTGSTQVGKQVGLMVQERFGRSLLELGGNNAIIAFEDADLSLVVPSALFAAVGTAGQRCTTARRLFIHESIHDEVVNRLKKAYAQIRVGNPWDPNVLYGPLHTKQAVSMFLGAVEEAKKEGGTVVYGGKVMDRPGNYVEPTIVTGLGHDASIAHTETFAPILYVFKFKNEEEVFAWNNEVKQGLSSSIFTKDLGRIFRWLGPKGSDCGIVNVNIPTSGAEIGGAFGGEKHTGGGRESGSDAWKQYMRRSTCTINYSKDLPLAQGIKFQ
Take B12: the “Avg. fold change (CLPP KO/WT)” value came to 1.09.

(Values after patent publication US20210171576A1, “METHODS FOR TREATING CANCER WITH ACYLDEPSIPEPTIDE ANALOGS” (priority 2018, published 2021).)
